The target in the assay is GAR-LRPIV (human) (UniProt Q07954). Nature of the assay: plate binding assay, Abs (450nm), ligand titrated 0-200 nM on immobilized GAR-LRPIV.

Chains of the proteins cited; added tags and fusions are not shown. Lines headed by an entry give the natural chain unless they say otherwise; changes in a name come on top. Residues count along the entry.
UniProt Q07954: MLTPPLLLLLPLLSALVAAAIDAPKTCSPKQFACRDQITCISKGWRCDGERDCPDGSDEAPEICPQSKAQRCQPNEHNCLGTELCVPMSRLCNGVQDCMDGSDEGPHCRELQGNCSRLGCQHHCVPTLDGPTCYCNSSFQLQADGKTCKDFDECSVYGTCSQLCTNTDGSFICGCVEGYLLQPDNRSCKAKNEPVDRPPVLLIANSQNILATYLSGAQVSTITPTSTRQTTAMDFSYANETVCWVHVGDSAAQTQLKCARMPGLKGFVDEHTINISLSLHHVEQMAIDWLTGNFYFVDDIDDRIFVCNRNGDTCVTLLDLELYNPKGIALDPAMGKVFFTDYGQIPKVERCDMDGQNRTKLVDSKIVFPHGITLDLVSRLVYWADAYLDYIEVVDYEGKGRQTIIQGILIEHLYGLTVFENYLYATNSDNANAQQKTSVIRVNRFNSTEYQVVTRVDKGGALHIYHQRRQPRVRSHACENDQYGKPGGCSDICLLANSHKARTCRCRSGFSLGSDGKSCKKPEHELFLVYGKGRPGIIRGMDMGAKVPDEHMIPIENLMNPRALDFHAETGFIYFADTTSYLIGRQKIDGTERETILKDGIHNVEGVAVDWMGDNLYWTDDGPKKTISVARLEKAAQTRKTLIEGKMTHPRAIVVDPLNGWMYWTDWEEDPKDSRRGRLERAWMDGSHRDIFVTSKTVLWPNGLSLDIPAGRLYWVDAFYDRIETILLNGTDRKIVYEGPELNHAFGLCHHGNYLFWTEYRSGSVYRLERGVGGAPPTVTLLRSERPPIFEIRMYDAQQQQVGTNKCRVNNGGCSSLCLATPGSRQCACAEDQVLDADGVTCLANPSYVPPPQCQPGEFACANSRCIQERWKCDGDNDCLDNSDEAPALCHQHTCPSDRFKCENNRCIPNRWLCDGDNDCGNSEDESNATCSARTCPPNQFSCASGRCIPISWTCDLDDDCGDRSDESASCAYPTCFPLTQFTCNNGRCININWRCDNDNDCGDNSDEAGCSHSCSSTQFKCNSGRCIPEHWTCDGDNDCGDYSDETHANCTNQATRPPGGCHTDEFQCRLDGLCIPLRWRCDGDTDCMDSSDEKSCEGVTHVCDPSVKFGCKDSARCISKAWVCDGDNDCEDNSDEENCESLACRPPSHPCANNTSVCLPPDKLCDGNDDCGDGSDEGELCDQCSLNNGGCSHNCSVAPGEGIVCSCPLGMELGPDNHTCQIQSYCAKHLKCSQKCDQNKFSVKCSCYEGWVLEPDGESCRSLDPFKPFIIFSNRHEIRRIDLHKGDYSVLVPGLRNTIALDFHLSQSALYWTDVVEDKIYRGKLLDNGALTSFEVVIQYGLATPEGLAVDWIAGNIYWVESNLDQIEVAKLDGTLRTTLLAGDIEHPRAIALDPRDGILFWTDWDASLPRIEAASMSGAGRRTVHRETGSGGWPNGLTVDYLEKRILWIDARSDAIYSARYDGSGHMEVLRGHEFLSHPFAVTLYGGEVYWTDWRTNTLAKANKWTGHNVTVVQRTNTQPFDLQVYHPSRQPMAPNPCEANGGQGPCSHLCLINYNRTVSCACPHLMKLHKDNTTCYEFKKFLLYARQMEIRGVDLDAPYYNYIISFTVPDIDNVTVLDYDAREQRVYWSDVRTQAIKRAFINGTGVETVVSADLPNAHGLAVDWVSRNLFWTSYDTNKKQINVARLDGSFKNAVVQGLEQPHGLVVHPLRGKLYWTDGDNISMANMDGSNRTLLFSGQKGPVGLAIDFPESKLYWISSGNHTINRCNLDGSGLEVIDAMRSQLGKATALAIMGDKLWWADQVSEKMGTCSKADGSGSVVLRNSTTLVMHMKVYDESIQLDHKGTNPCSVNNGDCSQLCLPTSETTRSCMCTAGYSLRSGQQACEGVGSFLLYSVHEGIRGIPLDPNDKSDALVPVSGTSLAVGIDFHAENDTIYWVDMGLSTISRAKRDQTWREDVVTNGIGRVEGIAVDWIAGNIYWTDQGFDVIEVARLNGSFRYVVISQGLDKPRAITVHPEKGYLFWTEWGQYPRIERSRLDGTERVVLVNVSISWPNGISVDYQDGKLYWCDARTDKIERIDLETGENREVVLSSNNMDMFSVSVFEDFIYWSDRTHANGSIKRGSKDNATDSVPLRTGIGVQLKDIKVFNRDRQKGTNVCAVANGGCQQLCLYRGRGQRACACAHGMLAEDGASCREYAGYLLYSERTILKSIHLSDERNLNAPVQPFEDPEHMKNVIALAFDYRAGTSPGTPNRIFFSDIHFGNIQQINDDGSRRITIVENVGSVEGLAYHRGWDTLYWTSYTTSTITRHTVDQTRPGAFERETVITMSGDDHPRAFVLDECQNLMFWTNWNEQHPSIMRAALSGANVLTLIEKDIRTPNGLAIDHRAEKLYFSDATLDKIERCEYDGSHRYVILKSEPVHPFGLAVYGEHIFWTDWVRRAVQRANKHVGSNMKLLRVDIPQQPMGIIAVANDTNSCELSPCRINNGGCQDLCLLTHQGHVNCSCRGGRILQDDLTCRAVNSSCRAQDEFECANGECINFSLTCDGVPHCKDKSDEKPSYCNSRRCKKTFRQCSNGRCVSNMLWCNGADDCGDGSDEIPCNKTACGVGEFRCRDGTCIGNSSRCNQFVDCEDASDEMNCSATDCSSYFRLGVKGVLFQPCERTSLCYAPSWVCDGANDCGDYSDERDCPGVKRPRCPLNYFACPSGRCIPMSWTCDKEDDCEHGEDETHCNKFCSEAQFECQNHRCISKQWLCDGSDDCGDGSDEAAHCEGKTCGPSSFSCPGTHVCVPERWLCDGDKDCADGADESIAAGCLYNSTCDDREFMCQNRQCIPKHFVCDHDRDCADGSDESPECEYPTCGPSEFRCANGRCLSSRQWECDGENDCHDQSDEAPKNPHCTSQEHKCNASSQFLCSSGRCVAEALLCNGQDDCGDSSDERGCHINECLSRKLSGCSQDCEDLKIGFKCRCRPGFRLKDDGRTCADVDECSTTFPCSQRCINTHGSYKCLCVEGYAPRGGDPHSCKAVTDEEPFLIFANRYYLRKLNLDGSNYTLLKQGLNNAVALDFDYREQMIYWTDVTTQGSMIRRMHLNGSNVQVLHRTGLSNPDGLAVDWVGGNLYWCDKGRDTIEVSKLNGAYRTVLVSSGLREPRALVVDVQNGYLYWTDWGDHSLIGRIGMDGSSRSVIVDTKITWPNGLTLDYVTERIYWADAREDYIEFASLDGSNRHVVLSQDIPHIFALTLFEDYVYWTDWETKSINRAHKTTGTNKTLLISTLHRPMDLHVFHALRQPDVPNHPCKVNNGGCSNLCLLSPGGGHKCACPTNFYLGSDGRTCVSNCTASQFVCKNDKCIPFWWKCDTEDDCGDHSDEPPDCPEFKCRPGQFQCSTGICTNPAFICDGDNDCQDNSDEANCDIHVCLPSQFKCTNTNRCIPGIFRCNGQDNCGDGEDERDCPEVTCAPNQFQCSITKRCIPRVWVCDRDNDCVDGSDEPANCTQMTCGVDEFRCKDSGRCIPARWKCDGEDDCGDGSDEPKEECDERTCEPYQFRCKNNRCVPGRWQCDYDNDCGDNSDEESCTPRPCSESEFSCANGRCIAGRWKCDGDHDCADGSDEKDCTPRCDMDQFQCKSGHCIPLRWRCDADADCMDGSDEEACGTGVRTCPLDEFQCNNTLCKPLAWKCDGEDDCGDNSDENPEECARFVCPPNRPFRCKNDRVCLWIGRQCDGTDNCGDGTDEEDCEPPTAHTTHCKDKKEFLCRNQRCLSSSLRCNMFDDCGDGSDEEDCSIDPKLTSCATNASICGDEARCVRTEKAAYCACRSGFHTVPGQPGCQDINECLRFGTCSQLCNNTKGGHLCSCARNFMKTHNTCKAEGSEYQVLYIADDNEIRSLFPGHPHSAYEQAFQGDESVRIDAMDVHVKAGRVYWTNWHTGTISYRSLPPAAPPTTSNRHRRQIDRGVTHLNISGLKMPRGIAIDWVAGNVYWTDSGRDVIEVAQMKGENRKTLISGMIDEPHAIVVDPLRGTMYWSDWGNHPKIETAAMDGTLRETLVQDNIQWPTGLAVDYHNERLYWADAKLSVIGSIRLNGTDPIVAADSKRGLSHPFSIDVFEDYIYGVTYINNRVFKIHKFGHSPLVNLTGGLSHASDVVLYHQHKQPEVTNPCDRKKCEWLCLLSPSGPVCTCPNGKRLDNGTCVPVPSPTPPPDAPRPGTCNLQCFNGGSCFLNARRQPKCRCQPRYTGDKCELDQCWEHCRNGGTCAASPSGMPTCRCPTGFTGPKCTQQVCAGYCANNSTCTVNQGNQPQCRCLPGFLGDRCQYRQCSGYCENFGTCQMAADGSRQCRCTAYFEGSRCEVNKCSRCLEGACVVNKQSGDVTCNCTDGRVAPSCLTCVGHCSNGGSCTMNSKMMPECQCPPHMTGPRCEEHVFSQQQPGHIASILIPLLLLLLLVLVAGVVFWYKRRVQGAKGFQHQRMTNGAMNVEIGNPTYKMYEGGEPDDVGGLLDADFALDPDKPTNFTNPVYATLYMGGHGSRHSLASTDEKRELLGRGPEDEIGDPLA
UniProt P14780, residues 20-707: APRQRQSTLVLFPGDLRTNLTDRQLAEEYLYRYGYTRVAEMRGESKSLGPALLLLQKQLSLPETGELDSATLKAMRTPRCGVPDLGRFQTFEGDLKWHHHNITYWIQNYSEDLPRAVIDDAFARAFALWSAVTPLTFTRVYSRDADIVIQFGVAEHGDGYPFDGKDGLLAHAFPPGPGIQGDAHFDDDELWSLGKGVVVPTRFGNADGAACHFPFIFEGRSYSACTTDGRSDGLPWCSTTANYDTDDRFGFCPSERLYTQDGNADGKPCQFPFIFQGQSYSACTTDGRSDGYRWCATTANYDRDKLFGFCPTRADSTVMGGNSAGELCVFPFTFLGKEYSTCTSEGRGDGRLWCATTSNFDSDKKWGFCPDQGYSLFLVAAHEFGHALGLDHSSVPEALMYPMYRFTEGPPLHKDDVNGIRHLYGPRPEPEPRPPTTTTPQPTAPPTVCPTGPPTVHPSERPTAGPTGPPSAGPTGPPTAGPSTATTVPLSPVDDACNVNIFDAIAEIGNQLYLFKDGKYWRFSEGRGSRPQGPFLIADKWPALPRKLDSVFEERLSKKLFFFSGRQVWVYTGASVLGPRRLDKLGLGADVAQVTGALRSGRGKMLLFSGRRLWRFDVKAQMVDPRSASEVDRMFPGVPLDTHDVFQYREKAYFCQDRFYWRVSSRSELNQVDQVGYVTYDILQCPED

No constants are given. Whether binding was seen depends on the method and setting. Some results given as binding are weak or reduced against the parent protein; the word gives no strength.

On to “MMP9 (from UniProt P14780 20-707) (enzyme)”, for which the binding entry is “binds”.

These data come from patent US20120201757A1.
